Results reported in the supplement of paper PMC4840960.
Counter-ions that a name gives are not always drawn. ± gives the standard deviation of the averaged measurements. This is one part of the list. Plates or batches differ in their baseline, so values are only roughly comparable.

Test system: E18 rat cortical neuron-glia co-culture
Experiment: total nuclei (DAPI) / Olig2+ nuclei (ratio); higher = more depletion of OPC/OL lineage cells
Settings: treatment time: 8 days (DIV5-DIV13)

SMILES | total nuclei (1 µM) | total nuclei (5 µM)
C[n+]1ccccc1C=NO [Pralidoxime] | 2.75 | 2.9
C[C@]12CCC(=O)C=C1CC[C@@H]1[C@@H]2[C@@H](O)C[C@@]2(C)[C@H]1CC[C@]2(O)C(=O)CO [Hydrocortisone] | 3.52 ± 0.11 | 4.1 ± 0.14
Cc1[nH]cnc1CN1CCc2c(c3ccccc3n2C)C1=O [Alosetron] | 3.58 | 4.6
C[C@]12C=CC(=O)C=C1CC[C@@H]1[C@@H]2C(=O)C[C@@]2(C)[C@H]1CC[C@]2(O)C(=O)CO [Prednisone] | 3.8 | 3.8
O=C1CN(/N=C/c2ccc([N+](=O)[O-])o2)C(=O)N1 [Nitrofurantoin] | 3.79 | 4.2
C[C@@H]1C[C@H]2[C@@H]3C[C@H](F)C4=CC(=O)C=C[C@]4(C)[C@@]3(F)[C@@H](O)C[C@]2(C)[C@@]1(O)C(=O)SCF [Fluticasone] | 4.78 | 5.8
Nc1nc2c(ncn2COCCO)c(=O)[nH]1 [Acyclovir] | 3.9 | 6.1
NS(=O)(=O)c1cc2c(cc1Cl)N=CNS2(=O)=O [Chlorothiazide] | 4.1 | 5.9
C[C@@H](c1ncncc1F)[C@](O)(Cn1cncn1)c1ccc(F)cc1F [Voriconazole] | 3.9 | 5.1
Nc1ccn([C@H]2CC[C@@H](CO)O2)c(=O)n1 [Zalcitabine] | 2.8 | 2.7
Fc1cncnc1 [5-fluoropyrimidine] | 2.73 | 2.6
O=C1c2c(O)ccc(O)c2C(=O)c2c(NCCNCCO)ccc(NCCNCCO)c21 [Mitoxantrone] | > 40 | > 40
CC#C[C@]1(O)CC[C@H]2[C@@H]3CCC4=CC(=O)CCC4=C3[C@@H](c3ccc(N(C)C)cc3)C[C@@]21C [Mifepristone] | 3.17 | > 40
CC(C)(C#N)c1cc(Cn2cncn2)cc(C(C)(C)C#N)c1 [Anastrozole] | 3.31 | 2.8
C[C@H](N[C@@H](CCc1ccccc1)C(=O)O)C(=O)N1CCC[C@H]1C(=O)O [Enalaprilat] | 2.74 | 2.7
CC(=O)OCC(=O)[C@@]12OC(C)(C)O[C@@H]1C[C@H]1[C@@H]3C[C@H](F)C4=CC(=O)C=C[C@]4(C)[C@@]3(F)[C@@H](O)C[C@@]12C [Fluocinonide] | 2.9 | 11.6
O=C1Nc2ccc(Cl)cc2[C@@](C#CC2CC2)(C(F)(F)F)O1 [Efavirenz] | 2.6 | 3.6
O=S(=O)(O)CCS [Mesna] | 2.54 | 2.4
NC(=O)OCC(COC(N)=O)c1ccccc1 [Felbamate] | 2.7 | 2.8
NC(=O)c1cccnc1 [Niacinamide] | 2.67 | 2.8
CCCCN1CCCC1CNC(=O)c1cc(C#N)c2ccccc2c1OC (stereo not given) [Nafadotride] | 3.12 | 3.2
C=C[C@H]1CN2CC[C@H]1C[C@H]2[C@H](O)c1ccnc2ccc(OC)cc12 [Quinine] | 3.69 | 3.4
O=C1CCC(N2C(=O)c3ccccc3C2=O)C(=O)N1 (stereo not given) [Thalidomide] | 2.72 | 2.6
Clc1ccc2c(c1)C(N1CCNCC1)=Nc1ccccc1O2 [Amoxapine] | 2.78 | 3.8
CCCSc1ccc2[nH]c(NC(=O)OC)nc2c1 [Albendazole] | 12.8 | 9.4

Shown tab-delimited: part of the list above.
SMILES	total nuclei (1 µM)	total nuclei (5 µM)
Cc1[nH]cnc1CN1CCc2c(c3ccccc3n2C)C1=O [Alosetron]	3.58	4.6
O=C1CN(/N=C/c2ccc([N+](=O)[O-])o2)C(=O)N1 [Nitrofurantoin]	3.79	4.2
C[C@@H]1C[C@H]2[C@@H]3C[C@H](F)C4=CC(=O)C=C[C@]4(C)[C@@]3(F)[C@@H](O)C[C@]2(C)[C@@]1(O)C(=O)SCF [Fluticasone]	4.78	5.8
NS(=O)(=O)c1cc2c(cc1Cl)N=CNS2(=O)=O [Chlorothiazide]	4.1	5.9
O=C1c2c(O)ccc(O)c2C(=O)c2c(NCCNCCO)ccc(NCCNCCO)c21 [Mitoxantrone]	> 40	> 40
CC#C[C@]1(O)CC[C@H]2[C@@H]3CCC4=CC(=O)CCC4=C3[C@@H](c3ccc(N(C)C)cc3)C[C@@]21C [Mifepristone]	3.17	> 40
C[C@H](N[C@@H](CCc1ccccc1)C(=O)O)C(=O)N1CCC[C@H]1C(=O)O [Enalaprilat]	2.74	2.7
NC(=O)c1cccnc1 [Niacinamide]	2.67	2.8
CCCCN1CCCC1CNC(=O)c1cc(C#N)c2ccccc2c1OC (stereo not given) [Nafadotride]	3.12	3.2
C=C[C@H]1CN2CC[C@H]1C[C@H]2[C@H](O)c1ccnc2ccc(OC)cc12 [Quinine]	3.69	3.4
Clc1ccc2c(c1)C(N1CCNCC1)=Nc1ccccc1O2 [Amoxapine]	2.78	3.8

Next results follow:

SMILES | total nuclei (1 µM) | total nuclei (5 µM)
CCN(Cc1ccncc1)C(=O)C(CO)c1ccccc1 (stereo not given) [Tropicamide] | 2.75 | 2.9
Cc1cc(NS(=O)(=O)c2ccc(N)cc2)no1 [Sulfamethoxazole] | 2.9 | 2.9
OC[C@H]1O[C@@H](Oc2cc(O)cc(/C=C/c3ccc(O)cc3)c2)[C@H](O)[C@@H](O)[C@@H]1O [Polydatin] | 3.42 | 5.1
CC(C)NCC(O)c1cc(O)cc(O)c1 (stereo not given) [Metaproterenol] | 3.97 | 4.4
NCC(=O)CCC(=O)O [Aminolevulinic Acid] | 2.91 | 4
CC(C)c1ccc2oc3nc(N)c(C(=O)O)cc3c(=O)c2c1 [Amlexanox] | 2.92 | 3.2
C#C[C@]1(O)CC[C@H]2[C@@H]3CCC4=Cc5oncc5C[C@]4(C)[C@H]3CC[C@@]21C [Danazol] | 3.3 | 3.1
CN1[C@@H]2CC[C@H]1C[C@@H](OC(=O)c1c[nH]c3ccccc13)C2 [Tropisetron] | 3.67 | 4.2
O=C1CN2Cc3c(ccc(Cl)c3Cl)N=C2N1 [Anagrelide hydrochloride] | 3.12 | 3.3
COc1cc(C(=O)NC2CCCNC2)cc(OC)c1OC (stereo not given) [Troxipide] | 3.7 | 4.2
Cn1cnc([N+](=O)[O-])c1Sc1ncnc2[nH]cnc12 [Azathioprine] | 2.93 | 2.9
CN1CCN(CCCN2c3ccccc3Sc3ccc(Cl)cc32)CC1 [Prochlorperazine] | 5 | 5.2
CS(=O)(=O)c1ccc(C2=C(c3ccccc3)C(=O)OC2)cc1 [Rofecoxib] | > 40 | > 40
N[C@@H]1CONC1=O [Cycloserine] | 4.16 ± 0.22 | 5
CCCCCCNC(=O)n1cc(F)c(=O)[nH]c1=O [Carmofur] | 3.38 | 4
COc1cc2c(cc1OC)C(=O)C(CC1CCN(Cc3ccccc3)CC1)C2 (stereo not given) [Donepezil] | 2.39 | 2.7
OC(CCN1CCCCC1)(c1ccccc1)C1CCCCC1 (stereo not given) [Trihexyphenidyl] | 3.68 | 4.1
Clc1ccccc1C(c1ccccc1)(c1ccccc1)n1ccnc1 [Clotrimazole] | 3.62 | 3.5
CNCC[C@H](Oc1cccc2ccccc12)c1cccs1 [Duloxetine] | 4.21 ± 1.8 | 5.4 ± 1.1
CCCC(CCC)C(=O)O [Valproic Acid] | 2.8 | 2.8
C[C@]12CCC(=O)C=C1CC[C@@H]1[C@@H]2[C@@H](O)C[C@@]2(C)[C@H]1CC[C@]2(O)C(=O)COC(=O)CCC(=O)O [Cortisol succinate] | 2.98 | 3
CC1(C)S[C@@H]2[C@H](NC(=O)Cc3ccccc3)C(=O)N2[C@H]1C(=O)O [Penicillin G] | 2.78 | 2.6
CC(=O)O[C@]1(C(C)=O)CC[C@H]2[C@@H]3C=C(C)C4=CC(=O)CC[C@]4(C)[C@H]3CC[C@@]21C [Megestrol acetate] | 3.84 | 3.9
CC(C)NCC(O)COc1cccc2ccccc12 (stereo not given) [Propranolol] | 3.83 | 4.2
CCS(=O)(=O)CCn1c([N+](=O)[O-])cnc1C [Tinidazole] | 2.8 | 2.8
